At least one compound was matched to its structure with a doubt left.
Assays:
[1] = Dynamic moisture-sorption (DMS) analysis; type: physicochemical; details: adsorption/desorption isotherm, 25° C., FIG. 7A
[2] = system: MIA model of osteoarthritis in rats; experiment: Monosodium iodoacetate (MIA) model of osteoarthritis pain, von Frey assay; type: in vivo, rat; details: 3, 10 and 30 mg/kg orally, one hour after dosing, MIA treated male Sprague Dawley rats, FIG. 18

Row | SMILES | DMS weight change after a 10% RH to 90% RH back to 10% RH cycle [1] | DMS weight change from about 10% RH to about 90% RH [1] | Paw withdrawal threshold (PWT) in comparison with vehicle [2]
1 | CC(C)(C)[C@@H](CO)NC(=O)c1nn(-c2c[n+]([O-])ccn2)c2c1C[C@@H]1C[C@H]21 [Compound 1 (Anhydrous Form), (1aS,5aS)-2-(4-oxy-pyrazin-2-yl)-1a,2,5,5a-tetrahydro-1H-2,3-diaza-cyclopropa[a]pentalene-4-carboxylic acid ((S)-1-hydroxymethyl-2,2-dimethyl-propyl)-amide] | (RH) to about 90% RH; and about 0.1% or less weight change | 1.0% or less weight change from about 10% relative humidity | 
2 | CC(C)(C)[C@@H](CO)NC(=O)c1nn(-c2c[n+]([O-])ccn2)c2c1C[C@@H]1C[C@H]21 [Compound 1, (1aS,5aS)-2-(4-oxy-pyrazin-2-yl)-1a,2,5,5a-tetrahydro-1H-2,3-diaza-cyclopropa[a]pentalene-4-carboxylic acid ((S)-1-hydroxymethyl-2,2-dimethyl-propyl)-amide] |  |  | Increase

From patent US9458136B2, “Crystalline forms and processes for the preparation of cannabinoid receptor modulators” (Arena Pharmaceuticals, Inc., priority 2011, dated 2016)
